Results deposited as PubChem BioAssay AID504793 (Drosophila RNAi Screening Center, 2011).

- Assay: 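Whole-genome screen for parts of the DNA damage checkpoint at G2/M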 (primary screen)
- System: Drosophila S2R+ cells
- Reagent: long dsRNA against Drosophila genes, about 0.25 µg dsRNA per well
- Timing: 4 days of dsRNA, then 4 hours of drug before read-out
- Conditions: doxorubicin 0.5 µM for 4 hours to cause double-strand breaks, in cells also given a low, harmless dose of dsRNA against nbs to sensitise the assay
- Read-out: 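Per-well count of mitotic cells stained for phospho-histone H3 after doxorubicin exposure, used as mitotic index; counts are raw and not normalised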
- Direction: mitotic cells: higher = more cells in mitosis, weaker G2 arrest
- Rule for the call: 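Genes are called active only when high mitotic counts were reproduced with independent dsRNAs and mitosis was checked for delay without damage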
- Calls: active = confirmed in follow-up tests; inactive = not confirmed
In all, the deposit lists about 23,000 reagents; this is a random part of those that have a named target and a result. In the full data, 62 (0.27%) are marked active. 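Calls come from follow-up tests whose scores are not deposited, so confirmed genes may have low counts here; counts are not normalised per plate.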 Raw values vary from plate to plate and are shown uncorrected. Reagents against one gene are numbered here. Reagent sequences are not shown.

| predicted target | reagent no. | mitotic cells, replicate 1 | mitotic cells, replicate 2 | call |
| --- | --- | --- | --- | --- |
| CG18744 | 1 | 7 | – | inactive |
| CG30047 | 1 | 8 | – | inactive |
| CG8399 | 1 | 1 | – | inactive |
| CG30338 | 1 | 3 | – | inactive |
| Hecw | 1 | 5 | – | inactive |
| Hecw | 2 | 8 | – | inactive |
| Hecw | 3 | 5 | – | inactive |
| CG42565 | 1 | 4 | – | inactive |
| CG8155 | 1 | 6 | – | inactive |
| CG8155 | 2 | 17 | – | inactive |
| CG8155 | 3 | 2 | – | inactive |
| CG14683 | 1 | 5 | – | inactive |
| CG15514 | 1 | 4 | – | inactive |
| CG15514 | 2 | 7 | – | inactive |
| CG7059 | 1 | 10 | – | inactive |
| CG7059 | 2 | 3 | – | inactive |
| ced-6 | 1 | 15 | – | inactive |
| ced-6 | 2 | 3 | – | inactive |
| M1BP | 1 | 25 | – | active |
| M1BP | 2 | 10 | – | inactive |
| CG10962 | 1 | 3 | – | inactive |
| CG10962 | 2 | 5 | – | inactive |
| AhcyL1 | 1 | 10 | – | inactive |
| AhcyL1 | 2 | 4 | – | inactive |
| l(2)37Cb | 1 | 5 | – | inactive |
| l(2)37Cb | 2 | 5 | – | inactive |
| CG34354 | 1 | 7 | – | inactive |
| CG34354 | 2 | 6 | – | inactive |
| CG31077 | 1 | 7 | – | inactive |
| CG31077 | 2 | 2 | – | inactive |
| CG13375 | 1 | 9 | – | inactive |
| fdl | 1 | 5 | – | inactive |
| fdl | 2 | 2 | – | inactive |
| CtsL1 | 1 | 9 | – | inactive |
| CtsL1 | 2 | 6 | – | inactive |
| CtsL1 | 3 | 10 | – | inactive |
| AQP | 1 | 6 | – | inactive |
| CG17065 | 1 | 10 | – | inactive |
| CG17065 | 2 | 8 | – | inactive |
| CG14860 | 1 | 14 | – | inactive |
| CG14860 | 2 | 7 | – | inactive |
| ChLD3 | 1 | 3 | – | inactive |
| Invadolysin | 1 | 12 | – | inactive |
| CG3505 | 1 | 8 | – | inactive |
| CG31562 (retired record) | 1 | 8 | – | inactive |
| CG31562 (retired record) | 2 | 4 | – | inactive |
| CG31111 | 1 | 6 | – | inactive |
| IA-2 | 1 | 8 | 7 | inactive |
| IA-2 | 2 | 2 | – | inactive |
| IA-2 | 3 | 8 | – | inactive |
| IA-2 | 4 | 5 | – | inactive |
| lncRNA:CR41601 | 1 | 7 | – | inactive |
| CG33110 | 1 | 15 | – | inactive |
| CG33110 | 2 | 6 | – | inactive |
| CycA | 1 | 8 | – | inactive |
| CycA | 2 | 7 | – | inactive |
| COX7B | 1 | 4 | – | inactive |
| CG42262 (retired record) | 1 | 7 | – | inactive |
| CG42262 (retired record) | 2 | 5 | – | inactive |
| CG10375 | 1 | 9 | – | inactive |
| CG14708 | 1 | 5 | – | inactive |
| CG14708 | 2 | 11 | – | inactive |
| dpr6 | 1 | 8 | – | inactive |
| dpr6 | 2 | 2 | – | inactive |
| dpr6 | 3 | 16 | – | inactive |
| pck | 1 | 5 | – | inactive |
| snRNP-U1-C | 1 | 12 | – | inactive |
| Irk3 | 1 | 3 | – | inactive |
| CG8500 | 1 | 3 | – | inactive |
| CG8500 | 2 | 10 | – | inactive |
| CG9686 | 1 | 9 | – | inactive |
| CG9686 | 2 | 4 | – | inactive |
| faf | 1 | 10 | – | inactive |
| CG31139 | 1 | 22 | – | inactive |
| syd | 1 | 6 | – | inactive |
| syd | 2 | 8 | – | inactive |
